Source: PubChem BioAssay AID1053208 (Peter MacCallum Cancer Centre, 2014)
Purpose: 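Genes whose silencing cuts survival of bone tumour cells only with doxorubicin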 (primary screen). System: mouse osteosarcoma cells, early-passage culture from an engineered mouse model of fibroblastic bone tumour. Reagent: siRNA pool against mouse genes, 40 nM. Duration: about 120 h (48 h before drug, then 72 h with drug). Conditions: doxorubicin 100 nM for 72 h, roughly 30-40% inhibitory dose. Measured: 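Luminescent ATP signal taken as viability with or without 100 nM doxorubicin for 72 h; mean of two wells set against non-targeting siRNA and turned into robust z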. Direction: viability z-score with doxorubicin and doxorubicin viability vs non-targeting: higher = more viable cells under doxorubicin; viability z-score without drug: higher = more viable cells with knock-down alone; z-score of drug to no-drug ratio: higher = less drug sensitisation by knock-down. Hit rule: 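Called active if knock-down leaves viability unchanged without drug (z within -2 to 2) but lowers it with doxorubicin (z at or under -2)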.
Here is a random part of about 17,000 reagents. In the full data, 788 (4.7%) were called active. 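Calls rest on z-score classes alone; an extra cut-off of viability at most 70% of control was not applied to them.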 Reagents against one gene are numbered here.

Target gene	pool no.	combined z-score class	viability z-score with doxorubicin	viability z-score without drug	z-score of drug to no-drug ratio	doxorubicin viability vs non-targeting	Outcome
Slc24a3	1	no change with or without drug	-1.12	-0.17	-1.01	0.84	inactive
Taf1c	1	no change with or without drug	-0.45	1.18	-1.12	0.9	inactive
Trav13-5 (T cell receptor alpha variable 13-5)	1	no change with or without drug	-1.12	0.51	-1.35	0.84	inactive
Ranbp3 (RAN binding protein 3)	1	no change with or without drug	-1.12	-1.35	-0.11	0.84	inactive
Nes (nestin)	1	no change with or without drug	0.11	0.17	0.11	0.95	inactive
Vmn1r62 (vomeronasal 1 receptor 62)	1	no change with or without drug	-0.9	-0.17	-0.79	0.86	inactive
Vmn1r62 (vomeronasal 1 receptor 62)	2	no change with or without drug	-1.01	-0.17	-0.9	0.85	inactive
Tns1 (tensin 1)	1	no change with or without drug	-1.57	-0.84	-1.01	0.8	inactive
Mims1 (mitochondrial inner membrane scaffold 1)	1	no change with or without drug	-0.45	0.84	-0.9	0.9	inactive
Rplp0 (ribosomal protein lateral stalk subunit P0)	1	low cell count with and without drug	-3.6	-3.04	-1.91	0.62	inactive
Rab15 (RAB15, member RAS oncogene family)	1	no change with or without drug	0.45	-0.51	1.01	0.98	inactive
Klf3 (Kruppel-like transcription factor 3 (basic))	1	no change with or without drug	0.45	1.18	-0.22	0.98	inactive
Map4k3 (mitogen-activated protein kinase kinase kinase kinase 3)	1	no change with or without drug	1.12	-0.51	1.69	1.04	inactive
Zc3h15 (zinc finger CCCH-type containing 15)	1	no change with or without drug	0.22	1.18	-0.45	0.96	inactive
Ufsp1 (UFM1-specific peptidase 1)	1	no change with or without drug	0.22	0.51	0	0.96	inactive
Dhx30 (DExH-box helicase 30)	1	no change with or without drug	0.79	1.35	0	1.01	inactive
Cnn2 (calponin 2)	1	low cell count with doxorubicin only	-2.47	-0.51	-2.25	0.72	active
Erich2 (glutamate rich 2)	1	no change with or without drug	-0.9	0.84	-1.35	0.86	inactive
Tspo (translocator protein)	1	no change with or without drug	1.12	1.01	0.56	1.04	inactive
Dusp16 (dual specificity phosphatase 16)	1	no change with or without drug	0.22	0.17	0.22	0.96	inactive
Elfn2	1	no change with or without drug	-1.01	-0.17	-0.9	0.85	inactive
Tcfl5 (transcription factor-like 5 (basic helix-loop-helix))	1	no change with or without drug	0.34	0.84	-0.11	0.97	inactive
Thumpd3 (THUMP domain containing 3)	1	no change with or without drug	1.57	-0.17	1.91	1.08	inactive
Adgrf1 (adhesion G protein-coupled receptor F1)	1	no change with or without drug	-0.45	0.84	-0.9	0.9	inactive
Nr3c1 (nuclear receptor subfamily 3, group C, member 1)	1	no change with or without drug	0.67	1.85	-0.45	1	inactive
Mettl16 (methyltransferase 16, N6-methyladenosine)	1	no change with or without drug	-0.22	0.34	-0.34	0.92	inactive
Cers6 (ceramide synthase 6)	1	no change with or without drug	0.67	1.85	-0.45	1	inactive

Entries above marked active:
Target gene	pool no.	combined z-score class	viability z-score with doxorubicin	viability z-score without drug	z-score of drug to no-drug ratio	doxorubicin viability vs non-targeting	Outcome
Cnn2 (calponin 2)	1	low cell count with doxorubicin only	-2.47	-0.51	-2.25	0.72	active

Next records follow:
Target gene	pool no.	combined z-score class	viability z-score with doxorubicin	viability z-score without drug	z-score of drug to no-drug ratio	doxorubicin viability vs non-targeting	Outcome
Arl15 (ADP-ribosylation factor-like 15)	1	no change with or without drug	-0.67	0.51	-0.9	0.88	inactive
Gpr101 (G protein-coupled receptor 101)	1	no change with or without drug	1.12	1.18	0.45	1.04	inactive
Hoxa4 (homeobox A4)	1	no change with or without drug	1.35	-0.51	1.91	1.06	inactive
Pdcd1lg2 (programmed cell death 1 ligand 2)	1	high cell count without drug only	1.69	2.02	0.45	1.09	inactive
Spice1 (spindle and centriole associated protein 1)	1	no change with or without drug	0.45	0.17	0.45	0.98	inactive
Kctd8 (potassium channel tetramerisation domain containing 8)	1	low cell count with and without drug	-2.25	-2.53	-0.67	0.74	inactive
Cd5l (CD5 antigen-like)	1	no change with or without drug	-0.9	-1.01	-0.11	0.86	inactive
Usp3 (ubiquitin specific peptidase 3)	1	no change with or without drug	-0.34	-0.67	0.22	0.91	inactive
Folr1 (folate receptor alpha)	1	no change with or without drug	0.9	1.01	0.34	1.02	inactive
Smim11 (small integral membrane protein 11)	1	no change with or without drug	-1.57	-0.84	-1.01	0.8	inactive
Espn (espin)	1	no change with or without drug	0.67	0.51	0.45	1	inactive
Lrrn1 (leucine rich repeat protein 1, neuronal)	1	no change with or without drug	-1.8	0.34	-2.02	0.78	inactive
Ets1 (Ets proto-oncogene 1, transcription factor)	1	no change with or without drug	0.45	-0.84	1.24	0.98	inactive
Pik3ca	1	no change with or without drug	-1.91	-0.34	-1.69	0.77	inactive
Defb2 (defensin beta 2)	1	no change with or without drug	0	0.34	-0.11	0.94	inactive
Trhr2 (thyrotropin releasing hormone receptor 2)	1	high cell count with doxorubicin only	2.25	-0.17	2.59	1.14	inactive
Rpl27a (ribosomal protein L27A)	1	low cell count with and without drug	-7.19	-5.9	-5.4	0.3	inactive
Pate6 (prostate and testis expressed 6)	1	no change with or without drug	1.46	0.34	1.35	1.07	inactive
Rrm1 (ribonucleotide reductase M1)	1	low cell count with and without drug	-4.95	-2.87	-3.82	0.5	inactive
LOC67527 (murine leukemia retrovirus)	1	no change with or without drug	0.79	-0.67	1.46	1.01	inactive
B3gnt2	1	no change with or without drug	0.34	1.52	-0.56	0.97	inactive
Kif26b (kinesin family member 26B)	1	no change with or without drug	-1.46	0.51	-1.69	0.81	inactive
Kif26b (kinesin family member 26B)	2	no change with or without drug	-1.35	-1.01	-0.67	0.82	inactive
